{"source": "patent US11346848B2", "about": "“Γ-secretase stabilizing compound screening assay” (VIB VZW, priority 2017, dated 2022)", "key": {"[1]": {"target": "T1, purified wild type γ-secretase (PSEN1/APH1A) with C99-3xFLAG substrate (Homo sapiens, UniProt P49768)", "T1 construct": "made in house; host or cells: Hi5 insect cells (baculovirus; virus made in Sf9); substrate from COS1 or HEK cells", "test": "γ-secretase in vitro thermo-activity assay, Aβ38/Aβ42 by ELISA (γ-cleavage efficiency, 4th cycle)", "type": "biochemical", "conditions": "37° C.; 10 μM GSM, 100 μM Fenofibrate"}, "[2]": {"target": "T1, purified wild type γ-secretase (PSEN1/APH1A) with C99-3xFLAG substrate", "test": "γ-secretase in vitro thermo-activity assay, endopeptidase level (AICD-3xFLAG production, western immunoblot)", "type": "biochemical", "conditions": "increasing temperatures; 10 μM GSM, 100 μM Fenofibrate"}}, "note": "At least one compound was matched to its structure with a doubt left.", "data": [{"smiles": "CC(C)OC(=O)C(C)(C)Oc1ccc(C(=O)c2ccc(Cl)cc2)cc1", "note": "[fenofibrate, Fenofibrate]", "values": [{"measurement": "conversion of Aβ42 to Aβ38", "setting": "[1]", "value": "decreased"}, {"measurement": "AICD production (endopeptidase level), stabilizing/destabilizing effect", "setting": "[2]", "value": "important reductions in AICD production"}]}]}
